Reference: the supplement of paper PMC10849652
Some of the results follow.

Protein sequences, listed by entry. Tags and fused reporters are not part of them. Lines headed by an entry give the natural chain unless they say otherwise; changes in a name come on top.
UniProt Q14135: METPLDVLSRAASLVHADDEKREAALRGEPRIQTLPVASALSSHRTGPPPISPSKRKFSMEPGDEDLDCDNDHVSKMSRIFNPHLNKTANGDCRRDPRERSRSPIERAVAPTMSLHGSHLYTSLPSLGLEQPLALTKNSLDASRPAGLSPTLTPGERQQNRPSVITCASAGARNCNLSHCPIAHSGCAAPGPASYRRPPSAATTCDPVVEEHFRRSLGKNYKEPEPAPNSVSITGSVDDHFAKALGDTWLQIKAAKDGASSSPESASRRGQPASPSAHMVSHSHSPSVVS
UniProt Q96RL7: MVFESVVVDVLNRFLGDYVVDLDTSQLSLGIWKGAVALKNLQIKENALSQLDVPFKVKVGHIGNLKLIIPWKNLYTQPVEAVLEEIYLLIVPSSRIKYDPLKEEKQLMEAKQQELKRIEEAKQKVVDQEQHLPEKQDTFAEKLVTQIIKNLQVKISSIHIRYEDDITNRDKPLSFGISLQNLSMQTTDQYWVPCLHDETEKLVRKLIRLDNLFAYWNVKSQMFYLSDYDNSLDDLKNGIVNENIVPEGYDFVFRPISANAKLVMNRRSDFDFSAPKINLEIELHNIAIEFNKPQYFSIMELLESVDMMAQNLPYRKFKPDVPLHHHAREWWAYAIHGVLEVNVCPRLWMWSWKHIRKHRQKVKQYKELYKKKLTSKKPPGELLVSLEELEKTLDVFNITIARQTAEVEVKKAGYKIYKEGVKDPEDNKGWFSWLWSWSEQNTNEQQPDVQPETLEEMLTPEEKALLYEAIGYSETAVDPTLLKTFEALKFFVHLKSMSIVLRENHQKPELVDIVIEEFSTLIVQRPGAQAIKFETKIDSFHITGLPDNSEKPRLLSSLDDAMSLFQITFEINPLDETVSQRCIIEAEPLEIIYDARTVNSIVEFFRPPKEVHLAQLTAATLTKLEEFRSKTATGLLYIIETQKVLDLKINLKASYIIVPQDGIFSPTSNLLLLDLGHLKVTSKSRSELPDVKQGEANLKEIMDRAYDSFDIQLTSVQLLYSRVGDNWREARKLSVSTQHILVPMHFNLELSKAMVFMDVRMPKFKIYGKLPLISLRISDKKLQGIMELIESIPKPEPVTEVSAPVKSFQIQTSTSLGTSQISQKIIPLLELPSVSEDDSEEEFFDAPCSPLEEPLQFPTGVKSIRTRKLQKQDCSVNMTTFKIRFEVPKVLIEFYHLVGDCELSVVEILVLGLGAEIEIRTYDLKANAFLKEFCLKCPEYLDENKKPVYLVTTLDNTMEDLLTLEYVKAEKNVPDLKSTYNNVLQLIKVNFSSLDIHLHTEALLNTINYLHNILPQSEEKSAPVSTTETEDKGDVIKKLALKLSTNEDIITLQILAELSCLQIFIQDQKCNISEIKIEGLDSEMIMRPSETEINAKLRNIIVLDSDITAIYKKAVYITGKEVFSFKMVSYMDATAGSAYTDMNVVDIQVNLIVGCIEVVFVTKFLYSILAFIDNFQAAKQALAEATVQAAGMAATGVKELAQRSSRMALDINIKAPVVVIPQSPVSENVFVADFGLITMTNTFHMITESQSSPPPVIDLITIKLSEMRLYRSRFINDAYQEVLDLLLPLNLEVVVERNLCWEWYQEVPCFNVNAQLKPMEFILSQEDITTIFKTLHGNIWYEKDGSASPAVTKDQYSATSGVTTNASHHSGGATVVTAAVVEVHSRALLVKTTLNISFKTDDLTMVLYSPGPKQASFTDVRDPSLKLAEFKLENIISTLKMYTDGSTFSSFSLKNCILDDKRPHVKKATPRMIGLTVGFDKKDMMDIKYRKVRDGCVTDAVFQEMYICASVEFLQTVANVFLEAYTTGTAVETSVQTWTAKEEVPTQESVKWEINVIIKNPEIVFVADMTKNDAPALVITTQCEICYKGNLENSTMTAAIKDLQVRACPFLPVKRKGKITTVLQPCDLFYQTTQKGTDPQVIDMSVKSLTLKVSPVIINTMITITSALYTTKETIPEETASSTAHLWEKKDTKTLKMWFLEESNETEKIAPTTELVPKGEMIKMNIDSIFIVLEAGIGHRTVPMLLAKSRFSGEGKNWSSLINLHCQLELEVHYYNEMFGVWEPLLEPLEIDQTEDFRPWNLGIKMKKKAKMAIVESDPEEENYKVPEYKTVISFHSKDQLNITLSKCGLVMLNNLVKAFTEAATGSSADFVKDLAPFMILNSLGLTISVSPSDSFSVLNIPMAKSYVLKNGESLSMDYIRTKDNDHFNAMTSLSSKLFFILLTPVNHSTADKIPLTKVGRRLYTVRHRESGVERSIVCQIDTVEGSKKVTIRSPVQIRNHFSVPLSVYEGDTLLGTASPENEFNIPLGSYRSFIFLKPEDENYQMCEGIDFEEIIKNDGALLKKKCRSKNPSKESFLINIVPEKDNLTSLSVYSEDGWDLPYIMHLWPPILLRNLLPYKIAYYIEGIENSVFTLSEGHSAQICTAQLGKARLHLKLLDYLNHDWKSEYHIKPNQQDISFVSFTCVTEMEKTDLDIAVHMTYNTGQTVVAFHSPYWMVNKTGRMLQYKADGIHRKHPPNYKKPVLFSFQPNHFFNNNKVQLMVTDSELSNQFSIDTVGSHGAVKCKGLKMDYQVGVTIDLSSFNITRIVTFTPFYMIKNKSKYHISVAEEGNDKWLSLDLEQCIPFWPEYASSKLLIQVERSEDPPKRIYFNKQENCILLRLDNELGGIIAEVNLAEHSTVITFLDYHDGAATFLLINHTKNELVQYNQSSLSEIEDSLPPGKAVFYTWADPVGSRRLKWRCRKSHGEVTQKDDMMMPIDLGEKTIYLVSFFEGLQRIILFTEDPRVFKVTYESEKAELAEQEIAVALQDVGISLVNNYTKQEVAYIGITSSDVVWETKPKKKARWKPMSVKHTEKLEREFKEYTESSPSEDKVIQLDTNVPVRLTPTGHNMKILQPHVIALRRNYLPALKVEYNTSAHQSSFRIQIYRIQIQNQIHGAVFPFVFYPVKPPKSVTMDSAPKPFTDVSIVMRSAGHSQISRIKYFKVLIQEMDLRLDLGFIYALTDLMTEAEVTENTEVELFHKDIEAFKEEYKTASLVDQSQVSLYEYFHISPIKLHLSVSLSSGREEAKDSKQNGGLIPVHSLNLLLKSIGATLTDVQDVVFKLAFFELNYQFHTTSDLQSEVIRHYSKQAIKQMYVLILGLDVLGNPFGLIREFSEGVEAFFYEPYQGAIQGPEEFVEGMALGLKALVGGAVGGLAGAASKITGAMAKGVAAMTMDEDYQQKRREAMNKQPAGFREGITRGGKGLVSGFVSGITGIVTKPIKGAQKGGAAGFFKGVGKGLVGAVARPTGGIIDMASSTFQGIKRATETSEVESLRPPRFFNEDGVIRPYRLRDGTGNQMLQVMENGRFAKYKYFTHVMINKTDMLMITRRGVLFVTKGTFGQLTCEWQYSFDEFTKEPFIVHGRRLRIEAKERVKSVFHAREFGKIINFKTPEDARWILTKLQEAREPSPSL
UniProt O94967: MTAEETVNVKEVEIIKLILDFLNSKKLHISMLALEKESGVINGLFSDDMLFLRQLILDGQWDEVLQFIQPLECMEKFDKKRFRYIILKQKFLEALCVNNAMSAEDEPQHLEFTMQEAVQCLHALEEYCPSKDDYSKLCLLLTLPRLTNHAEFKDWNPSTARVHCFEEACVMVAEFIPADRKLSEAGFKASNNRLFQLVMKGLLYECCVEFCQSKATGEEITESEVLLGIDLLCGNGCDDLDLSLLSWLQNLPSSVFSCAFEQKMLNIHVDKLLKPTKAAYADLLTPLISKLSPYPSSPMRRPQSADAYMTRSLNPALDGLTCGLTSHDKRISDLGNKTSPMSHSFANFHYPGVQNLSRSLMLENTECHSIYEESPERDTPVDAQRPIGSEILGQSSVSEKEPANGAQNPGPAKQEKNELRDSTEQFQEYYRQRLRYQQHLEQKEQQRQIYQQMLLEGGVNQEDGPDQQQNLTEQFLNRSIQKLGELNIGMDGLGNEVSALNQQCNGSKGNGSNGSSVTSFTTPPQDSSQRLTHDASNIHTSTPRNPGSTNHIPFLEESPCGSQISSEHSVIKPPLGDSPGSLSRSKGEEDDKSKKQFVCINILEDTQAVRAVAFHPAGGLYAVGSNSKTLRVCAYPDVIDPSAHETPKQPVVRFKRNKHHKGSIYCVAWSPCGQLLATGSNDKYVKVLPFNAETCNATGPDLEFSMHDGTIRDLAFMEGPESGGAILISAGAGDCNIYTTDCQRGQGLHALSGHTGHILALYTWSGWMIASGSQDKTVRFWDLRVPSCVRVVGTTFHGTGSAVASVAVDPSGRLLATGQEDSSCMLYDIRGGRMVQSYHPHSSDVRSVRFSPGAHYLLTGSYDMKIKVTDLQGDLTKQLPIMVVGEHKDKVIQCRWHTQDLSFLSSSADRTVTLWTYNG
UniProt A6NGB9: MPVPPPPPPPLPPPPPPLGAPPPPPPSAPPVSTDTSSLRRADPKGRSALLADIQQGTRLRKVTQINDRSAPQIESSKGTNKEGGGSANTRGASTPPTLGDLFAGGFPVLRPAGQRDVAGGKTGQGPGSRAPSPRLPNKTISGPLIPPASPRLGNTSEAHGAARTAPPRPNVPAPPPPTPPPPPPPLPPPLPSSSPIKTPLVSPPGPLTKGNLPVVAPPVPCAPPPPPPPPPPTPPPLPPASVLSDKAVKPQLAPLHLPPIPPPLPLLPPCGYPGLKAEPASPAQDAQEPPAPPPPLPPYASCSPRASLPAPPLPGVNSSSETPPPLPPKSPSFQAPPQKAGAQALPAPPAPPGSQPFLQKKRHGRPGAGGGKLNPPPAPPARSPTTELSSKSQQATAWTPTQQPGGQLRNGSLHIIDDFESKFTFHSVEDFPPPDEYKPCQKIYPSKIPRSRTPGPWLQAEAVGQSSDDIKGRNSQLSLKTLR
UniProt Q9P2S5: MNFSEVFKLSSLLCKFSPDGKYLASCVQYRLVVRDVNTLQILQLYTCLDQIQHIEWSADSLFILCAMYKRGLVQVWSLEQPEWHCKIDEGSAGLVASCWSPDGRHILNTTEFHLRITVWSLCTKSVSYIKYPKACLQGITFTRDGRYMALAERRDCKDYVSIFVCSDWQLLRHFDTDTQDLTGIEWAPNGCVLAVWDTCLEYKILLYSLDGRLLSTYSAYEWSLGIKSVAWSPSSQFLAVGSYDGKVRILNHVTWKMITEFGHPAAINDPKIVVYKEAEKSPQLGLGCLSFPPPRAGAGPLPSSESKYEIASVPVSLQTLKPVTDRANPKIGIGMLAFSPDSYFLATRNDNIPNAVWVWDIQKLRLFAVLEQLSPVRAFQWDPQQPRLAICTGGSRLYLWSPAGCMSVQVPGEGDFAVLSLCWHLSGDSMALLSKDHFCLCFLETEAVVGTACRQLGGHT
UniProt P21796, whole entry, looked up: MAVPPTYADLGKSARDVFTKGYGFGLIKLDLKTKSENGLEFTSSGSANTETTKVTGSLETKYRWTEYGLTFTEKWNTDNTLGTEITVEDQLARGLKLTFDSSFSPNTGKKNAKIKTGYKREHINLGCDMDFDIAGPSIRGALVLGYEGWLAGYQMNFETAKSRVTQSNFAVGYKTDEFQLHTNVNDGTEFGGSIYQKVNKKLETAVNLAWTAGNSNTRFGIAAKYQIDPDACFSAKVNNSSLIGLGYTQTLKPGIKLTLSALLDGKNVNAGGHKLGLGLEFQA
UniProt Q9BRG1: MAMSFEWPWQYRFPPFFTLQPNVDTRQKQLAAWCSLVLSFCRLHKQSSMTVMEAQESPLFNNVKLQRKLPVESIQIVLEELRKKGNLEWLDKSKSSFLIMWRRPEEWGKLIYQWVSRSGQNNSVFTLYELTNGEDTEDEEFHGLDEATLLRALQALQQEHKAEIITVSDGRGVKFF
UniProt Q8TAF3: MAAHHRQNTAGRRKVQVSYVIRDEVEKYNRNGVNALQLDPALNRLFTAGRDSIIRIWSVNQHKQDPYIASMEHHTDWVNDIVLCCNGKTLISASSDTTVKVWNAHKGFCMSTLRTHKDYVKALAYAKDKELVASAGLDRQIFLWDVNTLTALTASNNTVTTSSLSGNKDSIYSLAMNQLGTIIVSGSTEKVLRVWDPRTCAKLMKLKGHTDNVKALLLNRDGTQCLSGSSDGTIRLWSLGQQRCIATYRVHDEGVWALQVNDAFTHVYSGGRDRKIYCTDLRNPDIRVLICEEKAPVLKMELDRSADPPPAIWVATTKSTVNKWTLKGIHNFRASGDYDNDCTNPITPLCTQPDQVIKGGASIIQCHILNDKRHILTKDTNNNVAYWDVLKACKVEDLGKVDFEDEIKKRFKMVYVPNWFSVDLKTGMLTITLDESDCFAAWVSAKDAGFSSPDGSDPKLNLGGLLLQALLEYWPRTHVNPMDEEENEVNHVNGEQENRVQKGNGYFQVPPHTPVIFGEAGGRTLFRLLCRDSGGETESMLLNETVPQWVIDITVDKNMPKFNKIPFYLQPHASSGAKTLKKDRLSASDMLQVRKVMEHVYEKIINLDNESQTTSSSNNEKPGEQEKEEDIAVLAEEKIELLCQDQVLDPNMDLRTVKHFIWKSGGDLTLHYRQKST

These targets were tested with CCN(CCCOc1ccc2c(Nc3cc(CC(=O)Nc4cccc(F)c4)[nH]n3)ncnc2c1)CCOP(=O)(O)O [barasertib] (assay: log2 fold change, soluble protein after heating vs DMSO (PISA); higher = thermal stabilisation; K562 cells, 10 uM, 30 min; active = over 0.2 and 3.5 SD of the protein, either way, in both replicates (recomputed)).
Summary of the method: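 Thermal stability values are relative to control samples and come from duplicates. They are expressed as log2 fold changes. For measurement, K562 cells (2×10^6 cells/mL) received 10 μM compound for 30 min, and aliquots were heated for 3 min over 48°C-58°C, pooled, and extracted at 4°C in PBS with 0.5% NP-40. Soluble protein, the supernatant after 21,000xg for 90 min, was quantified by TMTpro 16plex LC-MS/MS with equalised channel sums.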

log2 fold change, inactive:
WAPL isoform 3 (UniProt Q7Z5K2) 0.201
VGLL4 isoform 4 (UniProt Q14135) -0.026
VPS13A (UniProt Q96RL7) -0.008
VPS53 isoform 4 (UniProt Q5VIR6) 0.045
WDR47 (UniProt O94967) -0.007
WIPI2 (UniProt Q9Y4P8) 0.053
WDR62 isoform 4 (UniProt O43379) 0.032
VPS11 (UniProt Q9H270) 0.017
VPS51 (UniProt Q9UID3) 0.059
VWA8 (UniProt A3KMH1) 0.022
WDR4 (UniProt P57081) -0.023
VPS13C (UniProt Q709C8) 0.029
WDR82 (UniProt Q6UXN9) -0.088
VEZT (UniProt Q9HBM0) -0.1
WDR45 (UniProt Q9Y484) 0.011
WIPF3 (UniProt A6NGB9) 0.01
WDR89 (UniProt Q96FK6) -0.008
WDR34 (UniProt Q96EX3) 0.084
VKORC1L1, A0A3B3ISV4 0.037
WIZ (UniProt O95785) -0.026
VRK1 (UniProt Q99986) 0.075
WRAP73 (UniProt Q9P2S5) -0.134
VPS8 (UniProt Q8N3P4) 0.028
WDR36 (UniProt Q8NI36) -0.021
VPS41 (UniProt P49754) -0.02
VWDE (UniProt Q8N2E2) 0.029
VDAC1 (UniProt P21796) -0.017
VPS25 (UniProt Q9BRG1) 0.023
WASHC2C, A0A096LPC5 -0.037
VIM (UniProt P08670) -0.043
VPS35 (UniProt Q96QK1) 0.024
WDR48 (UniProt Q8TAF3) -0.003
WBP4 (UniProt O75554) -0.022

2 neighbouring records from above:
log2 fold change, inactive:
WRAP73 (UniProt Q9P2S5) -0.134
VPS8 (UniProt Q8N3P4) 0.028
